The source of these data is the supplement of paper PMC9135407.

This assay concerns primary human hepatic stellate cells (donor 1). Nature of the assay: percent Bodipy-positive cells; higher = more lipid droplet accumulation. Particulars: 48 h.
Setting [1] is: library stock concentration: 3.33 mM.
[2] abbreviates: library stock concentration: 10 mM.
Setting [3] is: library stock concentration: 1 mM.
[4] abbreviates: library stock concentration: 80 uM.
[5] abbreviates: library stock concentration: 400 uM.
The mark [6] stands for this setting: library stock concentration: 2 mM.

The structures appear in SMILES notation. Several values for one entry are separate records, joined by “and”; a condition that tells them apart may be missing. Equal entries are not always repeated. Structures can show the parent of a compound that is named as a salt. ± gives the standard deviation of the averaged measurements. This is one part of the list. Baselines shift from plate to plate; read single values as rough.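 Primary human stellate myofibroblasts activated in culture; inactivation shown by regained lipid droplets. Readout: fraction of Hoechst-counted cells exceeding a per-plate Bodipy threshold, duplicate wells, each plate with DMSO negative and nortriptyline positive controls. Hits: control-normalized score beyond the plate's top-tenth-percentile nortriptyline wells, or among its three best wells. Final well concentrations unstated.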

`NS(=O)(=O)c1ccc(NC(=O)Nc2ccc(F)cc2)cc1`: the “percent Bodipy-positive cells” value by setting is: under setting [1], 4.82 ± 0.48%; under setting [2], 13.8 ± 2%.

With `CCCCCCCCNC(C)C(O)c1ccc(SC(C)C)cc1` (configuration not stated) [Suloctidil], the “percent Bodipy-positive cells” value was determined as 97.1 ± 1.2%. For the same compound, the “percent Bodipy-positive cells” value (library stock concentration: 5.9 mM) turned out to be 96.86 ± 0.16%. Also, the “percent Bodipy-positive cells” value under setting [2] stood at 52.9 ± 26%.

In the case of `C[C@H]1O[C@@H](O[C@H]2[C@@H](O)C[C@H](O[C@H]3[C@@H](O)C[C@H](O[C@H]4CC[C@@]5(C)[C@H](CC[C@@H]6[C@@H]5CC[C@]5(C)[C@@H](C7=CC(=O)OC7)CC[C@]65O)C4)O[C@@H]3C)O[C@@H]2C)C[C@H](O)[C@@H]1O` [Digitoxin], the “percent Bodipy-positive cells” value under setting [2] worked out at 52.8 ± 1.1%.

Take `CC(=O)CC(c1ccc([N+](=O)[O-])cc1)c1c(O)c2ccccc2oc1=O` (configuration not stated) [Acenocoumarol]: the “percent Bodipy-positive cells” value is 26.4 ± 8.7%.

As to `O=C(O)c1cc([N+](=O)[O-])ccc1NCCCc1ccccc1` [5-Nitro-2-(3-phenylpropylamino)benzoic acid], under setting [2], the “percent Bodipy-positive cells” value was 42.51 ± 0.42%.

`S=c1[nH]cnc2nc[nH]c12` [Mercaptopurine]: the “percent Bodipy-positive cells” value under setting [2] was 12% and 28.8%; the “percent Bodipy-positive cells” value (library stock concentration: 13.1 mM) was determined as 4.2 ± 2.1%.

Take `S=c1[nH]cnc2nc[nH]c12` [Mercaptopurine (6-MP)]: the “percent Bodipy-positive cells” value was determined as 6.61 ± 0.62% under setting [1] and 30.7 ± 19% under setting [2].

In the case of `COc1cc2c(cc1OC)[C@@H]1C(=O)c3ccc4c(c3O[C@@H]1CO2)C=CC(C)(C)O4` [Deguelin(-)], the “percent Bodipy-positive cells” value under setting [2] stood at 30 ± 2.6%.

For `CC(=O)O[C@]1(C(C)=O)CC[C@H]2[C@@H]3C=C(C)C4=CC(=O)CC[C@]4(C)[C@H]3CC[C@@]21C` [Megestrol acetate], the “percent Bodipy-positive cells” value was 5.25 ± 2.8%. Also, the “percent Bodipy-positive cells” value (library stock concentration: 5.2 mM) is 7.58% and 5.27%. In addition, the “percent Bodipy-positive cells” value under setting [2] stood at 11.8 ± 0.72%.

For `CC(=O)O[C@]1(C(C)=O)CC[C@H]2[C@@H]3C=C(C)C4=CC(=O)CC[C@]4(C)[C@H]3CC[C@@]21C` [Megestrol Acetate], the “percent Bodipy-positive cells” value under setting [1] was 18.9 ± 6.1% and the “percent Bodipy-positive cells” value under setting [2] turned out to be 20.8 ± 4.5%.

In the case of `CC(=O)O[C@]1(C(C)=O)CC[C@H]2[C@@H]3C=C(C)C4=CC(=O)CC[C@]4(C)[C@H]3CC[C@@]21C`, under setting [2], the “percent Bodipy-positive cells” value came out at 18.8 ± 16%.

For the compound `C=C1[C@H](CO)[C@@H](O)C[C@@H]1n1cnc2c(=O)[nH]c(N)nc21` [Entecavir Hydrate], the “percent Bodipy-positive cells” value under setting [1] stood at 19.2 ± 13% and the “percent Bodipy-positive cells” value under setting [2] was determined as 14.5 ± 1.9%.

For `O=C1O/C(=C/Br)CC[C@H]1c1cccc2ccccc12` [(S)-Bromoenol lactone], the “percent Bodipy-positive cells” value under setting [3] worked out at 29 ± 10%.

Consider `NC[C@H]1O[C@H](O[C@H]2[C@H](O)[C@@H](O[C@H]3O[C@H](CO)[C@@H](O)[C@H](N)[C@H]3O)[C@H](N)C[C@@H]2N)[C@H](N)[C@@H](O)[C@@H]1O` [Bekanamycin sulfate], for which the “percent Bodipy-positive cells” value under setting [2] turned out to be 26.4 ± 2.3%.

`CN(C)C(=O)c1cc2cnc(Nc3ccc(N4CCNCC4)cn3)nc2n1C1CCCC1` [Ribociclib]: the “percent Bodipy-positive cells” value under setting [4] was 6.75 ± 2.8%, the “percent Bodipy-positive cells” value under setting [5] turned out to be 4.422 ± 0.014%, the “percent Bodipy-positive cells” value under setting [6] was determined as 9.12 ± 0.24% and the “percent Bodipy-positive cells” value under setting [2] was 28.5 ± 1.1%.

Turning to `CN(C)C(=O)c1cc2cnc(Nc3ccc(N4CCNCC4)cn3)nc2n1C1CCCC1`, the “percent Bodipy-positive cells” value was 55.8 ± 11% under setting [1] and 75.25 ± 0.077% under setting [2].

For `Cc1cccc(C)c1NC(=O)CN1CCN(CCCC(c2ccc(F)cc2)c2ccc(F)cc2)CC1` [Lidoflazine], the “percent Bodipy-positive cells” value worked out at 31.5 ± 4.4%.

With `Cc1nc(N=Nc2cc(S(=O)(=O)O)c3cc([N+](=O)[O-])cc(S(=O)(=O)O)c3c2)c(COP(=O)(O)O)c(C=O)c1O` [PPNDS tetrasodium], the “percent Bodipy-positive cells” value under setting [2] turned out to be 17.1 ± 4.3%.

As for `CN(C)CCCN1c2ccccc2CCc2ccc(Cl)cc21.Cl` [Clomipramine hydrochloride], the “percent Bodipy-positive cells” value turned out to be 78.9 ± 4.1%.

Take `Cc1cccc(C2CN(C)CCc3c2cc(O)c(O)c3Cl)c1` (configuration not stated): the “percent Bodipy-positive cells” value under setting [2] came to 31.7 ± 1.6%.

In the case of `CCCCCCCCCCC/C=C\C/C=C\CCCC(=O)O` [Eicosa-5,8-dienoic acid (20:2 n-12)], the “percent Bodipy-positive cells” value under setting [3] is 10.4 ± 6.3%.

As to `Cc1c(C)c2c(c(C)c1O)CCC(C)(CCCC(C)CCCC(C)CCCC(C)C)O2` (stereo not drawn) [Alpha-tochopherol], the “percent Bodipy-positive cells” value under setting [2] worked out at 34.6 ± 5.9%.

Take `COc1cc(C)c(Cc2cnc(N)nc2N)cc1OC`: under setting [2], the “percent Bodipy-positive cells” value stood at 9 ± 4.3%.

Turning to `COc1cc2nc(N3CCN(C(=O)c4ccco4)CC3)nc(N)c2cc1OC.Cl` [Prazosin hydrochloride], the “percent Bodipy-positive cells” value under setting [2] is 92.4 ± 3.4%.

`Nc1nc(=O)[nH]cc1F` [Flucytosine]: the “percent Bodipy-positive cells” value was found to be 9.63 ± 0.26%. Also, the “percent Bodipy-positive cells” value under setting [1] was found to be 20.2 ± 20%. The “percent Bodipy-positive cells” value under setting [2] was determined as 8.48 ± 2.1%. Moreover, the “percent Bodipy-positive cells” value (library stock concentration: 15.5 mM) came to 14.1 ± 9.7%.

With `CCN1CCN(c2ccc(Nc3cc(N(C)C(=O)Nc4c(Cl)c(OC)cc(OC)c4Cl)ncn3)cc2)CC1`, the “percent Bodipy-positive cells” value runs as follows: under setting [4], 14.1 ± 1.8%; under setting [5], 21.4 ± 6.6%; under setting [6], 28.4 ± 14%; under setting [2], 40.2 ± 4%.

`Oc1cc(O)cc(/C=C/c2ccc(O)c(O)c2)c1` [Piceatannol]: the “percent Bodipy-positive cells” value reads like this: under setting [1], 6.92 ± 1%; under setting [2], 3.96% and 8.1% and 4.39%.

On to `CC[C@@]1(O)C(=O)OCc2c1cc1n(c2=O)Cc2cc3c(CN(C)C)c(O)ccc3nc2-1` [Topotecan], for which the “percent Bodipy-positive cells” value (library stock concentration: 4.7 mM) was found to be 6.24 ± 2.1%.

For `CC[C@@]1(O)C(=O)OCc2c1cc1n(c2=O)Cc2cc3c(CN(C)C)c(O)ccc3nc2-1` [Topotecan HCl], the “percent Bodipy-positive cells” value came out at 12.7 ± 1.4% under setting [1] and 29.7 ± 1.4% under setting [2].

Regarding `CC[C@@]1(O)C(=O)OCc2c1cc1n(c2=O)Cc2cc3c(CN(C)C)c(O)ccc3nc2-1` [Topotecan hydrochloride hydrate], the “percent Bodipy-positive cells” value under setting [2] was determined as 51.6 ± 11%.

Regarding `CC[C@@]1(O)C(=O)OCc2c1cc1n(c2=O)Cc2cc3c(CN(C)C)c(O)ccc3nc2-1` [Topotecan hydrochloride], the “percent Bodipy-positive cells” value reads like this: (library stock concentration: 4.4 mM) 30.6 ± 2%; under setting [2], 49.6 ± 1.3%.

`CC[C@@]1(O)C(=O)OCc2c1cc1n(c2=O)Cc2cc3c(CN(C)C)c(O)ccc3nc2-1`: the “percent Bodipy-positive cells” value under setting [2] worked out at 17.9 ± 4%.

Consider `Nc1nnc(-c2cccc(Cl)c2Cl)c(N)n1` [Lamotrigine], for which the “percent Bodipy-positive cells” value was 22.2 ± 5% under setting [1]; 11.6% and 9.42% (library stock concentration: 7.8 mM); 8.25% and 32.3% under setting [2].
